Test results published in article doi:10.1101/2024.12.16.628697.
No constants are given. Whether binding was seen depends on the method and setting. Some entries that bind do so weakly or less than the wild type.

Amino acid sequences for entries named in this document (tags omitted). Residues count along the entry.
UniProt Q8TAF3, residues 9-677: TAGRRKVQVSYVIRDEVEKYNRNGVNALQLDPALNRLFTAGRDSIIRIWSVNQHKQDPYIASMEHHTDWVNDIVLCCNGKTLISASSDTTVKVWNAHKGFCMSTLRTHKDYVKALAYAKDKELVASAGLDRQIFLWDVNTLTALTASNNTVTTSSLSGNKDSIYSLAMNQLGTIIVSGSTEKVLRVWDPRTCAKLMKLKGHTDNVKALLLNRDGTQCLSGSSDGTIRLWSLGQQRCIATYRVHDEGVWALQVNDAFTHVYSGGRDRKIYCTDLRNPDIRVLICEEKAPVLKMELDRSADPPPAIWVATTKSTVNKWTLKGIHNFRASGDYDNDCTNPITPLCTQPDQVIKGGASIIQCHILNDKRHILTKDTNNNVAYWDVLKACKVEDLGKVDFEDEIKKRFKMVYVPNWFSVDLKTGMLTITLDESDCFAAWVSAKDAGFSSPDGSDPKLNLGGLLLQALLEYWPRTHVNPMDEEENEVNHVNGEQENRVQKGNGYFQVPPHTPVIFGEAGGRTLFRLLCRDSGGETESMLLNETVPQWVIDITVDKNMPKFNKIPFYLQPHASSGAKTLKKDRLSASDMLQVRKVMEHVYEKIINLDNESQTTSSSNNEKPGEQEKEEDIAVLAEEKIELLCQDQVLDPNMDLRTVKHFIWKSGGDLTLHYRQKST

Target: UAF1 (res. 9-677) (UniProt Q8TAF3)
Assay: co-purification

binding: binds
B1: USP1 (res. 21-785, G670A + G671A) (enzyme, UniProt O94782 21-785)
chain: NRLSLKFFQKKETKRALDFTDSQENEEKASEYRASEIDQVVPAAQSSPINCEKRENLLPFVGLNNLGNTCYLNSILQVLYFCPGFKSGVKHLFNIISRKKEALKDEANQKDKGNCKEDSLASYELICSLQSLIISVEQLQASFLLNPEKYTDELATQPRRLLNTLRELNPMYEGYLQHDAQEVLQCILGNIQETCQLLKKEEVKNVAELPTKVEEIPHPKEEMNGINSIEMDSMRHSEDFKEKLPKGNGKRKSDTEFGNMKKKVKLSKEHQSLEENQRQTRSKRKATSDTLESPPKIIPKYISENESPRPSQKKSRVKINWLKSATKQPSILSKFCSLGKITTNQGVKGQSKENECDPEEDLGKCESDNTTNGCGLESPGNTVTPVNVNEVKPINKGEEQIGFELVEKLFQGQLVLRTRCLECESLTERREDFQDISVPVQEDELSKVEESSEISPEPKTEMKTLRWAISQFASVERIVGEDKYFCENCHHYTEAERSLLFDKMPEVITIHLKCFAASGLEFDCYGGGLSKINTPLLTPLKLSLEEWSTKPTNDSYGLFAVVMHSGITISSGHYTASVKVTDLNSLELDKGNFVVDQMCEIGKPEPLNEEEARGVVENYNDEEVSIRVGGNTQPSKVLNKKNVEAIGLLAAQKSKADYELYNKASNPDKVASTAFAENRNSETSDTTGTHESDRNKESSDQTGINISGFENKISYVVQSLKEYEGKWLLFDDSEVKVTEEKDFLNSLSPSTSPTSTPYLLFYKKL
